# Test results: article PMC5675994
# Amino acid sequences for entries named in this document (tags omitted). A change or cut given only in a name is not applied to a line headed by its entry.
# UniProt Q07540: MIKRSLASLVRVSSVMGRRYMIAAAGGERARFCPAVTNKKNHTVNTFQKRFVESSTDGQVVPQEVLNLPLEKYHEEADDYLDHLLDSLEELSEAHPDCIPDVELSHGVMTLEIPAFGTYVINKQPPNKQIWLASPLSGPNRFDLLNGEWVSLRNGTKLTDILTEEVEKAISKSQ
# These are yes or no findings as the source states them, for the method shown. Binding seen in cells or lysates may run through a third protein. These calls come from enrichment with a bait or labelling near it, and not all partners need be listed. For some of these results: Tags and fused reporters may be left off the sequences shown.
# T1: Nfs1-His6 (S. cerevisiae) (UniProt P25374)
# T1 sequence: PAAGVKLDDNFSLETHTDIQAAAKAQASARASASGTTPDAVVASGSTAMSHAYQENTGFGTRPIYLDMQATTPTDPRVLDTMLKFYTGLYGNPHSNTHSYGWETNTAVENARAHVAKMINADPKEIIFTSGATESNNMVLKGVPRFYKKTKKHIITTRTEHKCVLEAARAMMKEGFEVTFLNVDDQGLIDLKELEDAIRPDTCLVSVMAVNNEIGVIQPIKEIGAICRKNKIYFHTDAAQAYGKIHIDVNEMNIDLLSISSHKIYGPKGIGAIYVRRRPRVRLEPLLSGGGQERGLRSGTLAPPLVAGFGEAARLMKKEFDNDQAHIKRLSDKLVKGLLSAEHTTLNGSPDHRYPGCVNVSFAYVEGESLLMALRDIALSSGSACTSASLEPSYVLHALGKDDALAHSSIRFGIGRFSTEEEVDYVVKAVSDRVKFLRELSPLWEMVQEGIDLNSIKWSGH
# B1: Uncharacterized WD repeat-containing protein YOL087C (protein, UniProt Q99247 1-1116)
# chain: MNQLTVSYGLISPDYCTSQDAHILPITKILYPDIPGKNYFLTSGRDGSIILHKNTQLSNEPETAATTIKNDAIRMQVHSDWASDLIHVNMKNSDPSAGDTFISVSHDFSIVLISVNAQLTTWDKKIIGDHDDYIKCIVPIHYEMSNDYELEEQEGGPDNVHDGINNGIVVDEQNNFLFVTGGLDRKIKLWCLSSGPEKMATLLHTFDNAQSNDTGSIYSMSPIIPKYSFDDNQTSRPFDFVAGDCNGDLIFYSCKYRKEVIRIQNAHRTNIKVVRTLDDSTRLISTSSDGVINVWDLNCRHDQTTGALQLPKKIGSWSWDSSIWCVQGTSLDKLYFGDSQGNVMRANLSSYEDAKLTRIFKPDHHHHHHHHHEHEEQNISTTDAKVKKYGGILDIALLPNEKLLFSFCTDSNLNVLDLTNNHFSVNEGGFALTRSSLLTNRRHVITENTKGQMQRWDIVSCELLNTFDSSEGSFDDIVMKYTSKEILSHWCTVSVKVGMLFVKINPKFLKTEVYGSALKDYQVVNNIEINSDERYNLGKIVINSLFNEFISYEVQKDKLLRKKIFSLKKKDLTNSLTLDTGYNSESKKNNKDKKRKSTFKISSTLSIGNTNSSGTPPNSAPATPVMAETIVLEEQPLLQSASDKAIDDSLELVQPLPASKKPYFRTQSSGSLLSRKFKSFRSTSGRATTGLNTPEEPKGILPDTPHVINDDSAFPQAINTTQQSKDATPESMLWNHPFKLEQKLSAISSQDLPSNNTHNKLRSSENSRANSTSTLEGNEKKKPEFMPDLLEQIQESYKQQYMNTSSLKYLTKRLPVTKIIKASSCPIIRVKSATLVLVHLWKEGSCGGRVLFSTLLPPSHVDNETVSGGKENSKPPDDEEVDLQAVDDDKLGKYDLIDGELGSRLNRRQIFEQLEENLPYWFAKALFRDIKTVEEQPKLNFLIMPWSSVGGSEAAGNENKKKFISASDTTESSGNDSSDSSLGNGNEAVSPSTQQQFHNMLKFGRPKTSEQELNPTDLPRISEANVKLVAPGMIRVKKIKLYVADRFETKTPEMKAKMEPSLWLDLLCRGQVLDNDMTLNTVRTLYWKSQGDIVLEYRRKVHNSPLVHEVNGNEGK
# B2: Altered inheritance of mitochondria protein 32 (protein, UniProt Q04689 1-311)
# chain: MLRITVKTLQQRASFHHSFKHISVPDLHTRAQNDQTNCYCQEINARLPSKTDPLDPHIKLPHRTPNYNKHVLLLSPGDRFAQPWKVAWNHNLDTNTNRPYNAISKLRSHLGGSPGILINAVHLQNEFIPRPKQHDEWLYFFVIPDMKLYVIKETDIEEFASFLDEGAIQAPKLSFQDYLSGKAKASQQVHEVHHRKLTRFQGETFLRDWNLVCGHYKRDAKCGEMGPDIIAAFQDEKLFPENNLALISHIGGHIFAGNVIFYKLFGREKMQNKLDSLWFGKVYPHNLKLLCENLENGKIIDEMYRGGISMN
# B3: Cytochrome b-c1 complex subunit 2, mitochondrial (protein, UniProt P07257 17-368)
# chain: LTVSARDAPTKISTLAVKVHGGSRYATKDGVAHLLNRFNFQNTNTRSALKLVRESELLGGTFKSTLDREYITLKATFLKDDLPYYVNALADVLYKTAFKPHELTESVLPAARYDYAVAEQCPVKSAEDQLYAITFRKGLGNPLLYDGVERVSLQDIKDFADKVYTKENLEVSGENVVEADLKRFVDESLLSTLPAGKSLVSKSEPKFFLGEENRVRFIGDSVAAIGIPVNKASLAQYEVLANYLTSALSELSGLISSAKLDKFTDGGLFTLFVRDQDSAVVSSNIKKIVADLKKGKDLSPAINYTKLKNAVQNESVSSPIELNFDAVKDFKLGKFNYVAVGDVSNLPYLDEL
# B4: Iron sulfur cluster assembly protein 2, mitochondrial (protein, UniProt Q12056 27-156)
# chain: YHPKVIDHYTNPRNVGSMDKSLANVGTGIVGAPACGDVIKLQIQVNDKSGIIENVKFKTFGCGSAIASSSYMTELVRGMSLDEAVKIKNTEIAKELSLPPVKLHCSMLAEDAIKAAIKDYKTKRNPSVLH
# B5: Putative transcription factor SEF1 (protein, UniProt P34228 1-1148)
# chain: MVKDNRDSDQDQDFSSAHMKRQPEQQQLQQHQFPSKKQRISHHDDSHQINHRPVTSCTHCRQHKIKCDASQNFPHPCSRCEKIGLHCEINPQFRPKKGSQLQLLRQDVDEIKSKLDTLLANDSVFVHLLQQIPMGNSLLNKLNLHPTPTPGTIIPNPDSSPSSGSPTSSAAQRDSKVSVQTYLSREPQLLQANQGSNTNKFKANNEASSHMTLRASSLAQDSKGLVATEPNKLPPLLNDSALPNNSKESLPPALQMAFYKNNSAGNTPNGPFSPIQKTYSPHTTSTTVTTTTNQPPFAATSHVATNNNADRTKTPVVATTTTMPLLPSPHANVDEFVLGDISISIEKANRLHHIFVTRYLPYFPIMYSNNATELYSQSQLLFWTVMLTACLSDPEPTMYCKLSSLIKQLAIETCWIRTPRSTHISQALLILCIWPLPNQKVLDDCSYRFVGLAKSLSYQLGLHRGEFISEFTRTQTSMPNAEKWRTRTWLGIFFAELCWASILGLPPTSQTDYLLEKALSCGDEESEEDNNDSIDNNNNDKRNKKDEPHVESKYKLPGSFRRLLSLANFQAKLSHIIGSSTSSPDGLLEPKYRAETLSILGKELDLLAKTLNFQSDDTVNIYFLYVKLTVCCFAFLPETPPTDQIPYVTEAYLTATKIVTLLNNLLETHQLIELPIYIRQAATFSALILFKLQLTPLLPDKYFDSARQSVVTIHRLYRNQLTAWATSVENDISRTASMLEKLNFVLIMHPEVFVEEDGIISRMRSHLTGSLFYDLVWCVHEARRREMDPEYNKQALEKAAKKRKFSSNGIYNGTSSTGGITDRKLYPLPLYNHISRDDFETVTKTTPSGTTVTTLVPTKNALKQAEKLAKTNNGDSDGSIMEINGIPLSMLGETGSVKFQSLFANTSNSNDYNNNRTLLDASNDISIPSNSIYPVASVPASNNNPQSTKVDYYSNGPSVIPDLSMKRSVSTPVNHFPASVPGLRNHPVGNLSNNVTLGIDHPIPREHSNLQNVTMNYNNQFSNANAIGRSQSSMSHSRTPIASKSNNMTDLHSVVSDPGSSKSTAYPPLSLFSKSNDINSNKTNQRFSTGTNTVTSSNFQTIDNENNVKTPGNKLTDFFQQQSAGWIEGNSSNDDFFGWFDMNMEQGF
# B6: mRNA-binding protein PUF3 (protein, UniProt Q07807 1-879)
# chain: MEMNMDMDMDMELASIVSSLSALSHSNNNGGQAAAAGIVNGGAAGSQQIGGFRRSSFTTANEVDSEILLLHGSSESSPIFKKTALSVGTAPPFSTNSKKFFGNGGNYYQYRSTDTASLSSASYNNYHTHHTAANLGKNNKVNHLLGQYSASIAGPVYYNGNDNNNSGGEGFFEKFGKSLIDGTRELESQDRPDAVNTQSQFISKSVSNASLDTQNTFEQNVESDKNFNKLNRNTTNSGSLYHSSSNSGSSASLESENAHYPKRNIWNVANTPVFRPSNNPAAVGATNVALPNQQDGPANNNFPPYMNGFPPNQFHQGPHYQNFPNYLIGSPSNFISQMISVQIPANEDTEDSNGKKKKKANRPSSVSSPSSPPNNSPFPFAYPNPMMFMPPPPLSAPQQQQQQQQQQQQEDQQQQQQQENPYIYYPTPNPIPVKMPKDEKTFKKRNNKNHPANNSNNANKQANPYLENSIPTKNTSKKNASSKSNESTANNHKSHSHSHPHSQSLQQQQQTYHRSPLLEQLRNSSSDKNSNSNMSLKDIFGHSLEFCKDQHGSRFIQRELATSPASEKEVIFNEIRDDAIELSNDVFGNYVIQKFFEFGSKIQKNTLVDQFKGNMKQLSLQMYACRVIQKALEYIDSNQRIELVLELSDSVLQMIKDQNGNHVIQKAIETIPIEKLPFILSSLTGHIYHLSTHSYGCRVIQRLLEFGSSEDQESILNELKDFIPYLIQDQYGNYVIQYVLQQDQFTNKEMVDIKQEIIETVANNVVEYSKHKFASNVVEKSILYGSKNQKDLIISKILPRDKNHALNLEDDSPMILMIKDQFANYVIQKLVNVSEGEGKKLIVIAIRAYLDKLNKSNSLGNRHLASVEKLAALVENAEV
# B7: Alcohol dehydrogenase 1 (protein, UniProt P00330 1-348)
# chain: MSIPETQKGVIFYESHGKLEYKDIPVPKPKANELLINVKYSGVCHTDLHAWHGDWPLPVKLPLVGGHEGAGVVVGMGENVKGWKIGDYAGIKWLNGSCMACEYCELGNESNCPHADLSGYTHDGSFQQYATADAVQAAHIPQGTDLAQVAPILCAGITVYKALKSANLMAGHWVAISGAAGGLGSLAVQYAKAMGYRVLGIDGGEGKEELFRSIGGEVFIDFTKEKDIVGAVLKATDGGAHGVINVSVSEAAIEASTRYVRANGTTVLVGMPAGAKCCSDVFNQVVKSISIVGSYVGNRADTREALDFFARGLVKSPIKVVGLSTLPEIYEKMEKGQIVGRYVVDTSK
# B8: C-1-tetrahydrofolate synthase, mitochondrial (protein, UniProt P09440 35-975)
# chain: YHILSGRKLAQSIREKANDEIQAIKLKHPNFKPTLKIIQVGARPDSSTYVRMKLKASKDSNVDCIIEKLPAEITEVELLKKISDINDDDSIHGLLIQLPLPRHLDETTITNAVDFKKDVDGFHRYNAGELAKKGGKPYFIPCTPYGCMKLLEEAHVKLDGKNAVVLGRSSIVGNPIASLLKNANATVTVCHSHTRNIAEVVSQADIVIAACGIPQYVKSDWIKEGAVVIDVGINYVPDISKKSGQKLVGDVDFDSVKEKTSYITPVPGGVGPMTVAMLVSNVLLAAKRQFVESEKLPVIKPLPLHLESPVPSDIDISRAQSPKHIKQVAEELGIHSHELELYGHYKAKISPNIFKRLESRENGKYVLVAGITPTPLGEGKSTTTMGLVQALSAHLGKPSIANVRQPSLGPTLGVKGGAAGGGYAQVIPMDEFNLHLTGDIHAISAANNLLAAAIDTRMFHEATQKNDSTFYKRLVPRKKGIRKFTPSMQRRLKRLDIEKEDPDALTPEEVKRFARLNINPDTITIRRVVDINDRMLRQITIGEAATEKGFTRTTGFDITVASELMAILALSKSLHEMKERIGRMVIGADYDNKPVTVEDIGCTGALTALLRDAIKPNLMQTLEGTPVMVHAGPFANISIGASSVIADLMALKLVGSEKNPLNDKNIHEPGYVVTEAGFDFAMGGERFFDIKCRSSGLVPDAVVLVATVRALKSHGGAPNVKPGQSLPKEYTEENIDFVAKGVSNLVKQIENIKTFGIPVVVAINRFETDSQAEIEVIKKAALNAGASHAVTSNHWMEGGKGAVELAHAVVDATKEPKNFNFLYDVNSSIEDKLTSIVQKMYGGAKIEVSPEAQKKIDTYKKQGFGNLPICIAKTQYSLSHDPSLKGVPRGFTFPIRDVRASIGAGYLYALAAEIQTIPGLSTYAGYMAVEVDDDGEIEGLF
# Biological target: T1, Nfs1-His6 (S. cerevisiae)
# Assay: affinity purification with mass spectrometry; Nfs1-His6 held on Ni-NTA superflow agarose from sonicated, cleared lysate of isolated mitochondria of the Gal-Nfs1-His6 yeast strain; 50 mM TrisCl pH 7.5, 80 mM KCl, 10% glycerol, wash 40 mM imidazole, elution 400 mM imidazole; eluate analysed by LC-MS/MS
row,Binder,binding
1,B1,binds
2,B2,binds
3,B3,binds
4,B4,binds
5,B5,binds
6,B6,binds
7,B7,binds
8,B8,binds

# Biological target: Yfh1-His6 (S. cerevisiae) (UniProt Q07540)
# Assay: affinity purification with mass spectrometry; Yfh1-His6 held on Ni-NTA superflow agarose from French-press lysate (108,000xg supernatant) of isolated mitochondria of the Yfh1-His6 yeast strain; 50 mM TrisCl pH 7.5, 80 mM KCl, 10% glycerol, wash 40 mM imidazole with 0.1% Triton X-100, elution 400 mM imidazole; eluate analysed by LC-MS/MS
row,Binder,binding
1,B1,binds
2,B2,binds
3,B3,binds
4,B4,binds
5,B5,binds
6,B6,binds
7,B7,binds
8,B8,binds
